Values of other authors, collected in patent publication US8236818B2, “Substituted imidazopyridine derivatives as melanocortin-4 receptor antagonists” (Santhera Pharmaceuticals (Schweiz) AG, priority 2007, dated 2012).

Conditions: control compounds of the Caco-2 assay; Zhao et al. 2001; cited from earlier work

In the case of `CC(C)NCC(O)COc1ccc(CC(N)=O)cc1` (stereo not shown) [atenolol], the human absorption is given as “approximately 50%”.
